Reference: the supplement of paper PMC9015667
Where a name gives a salt, the structure may show the parent alone. Some of the results follow. Repeats are few or missing, and single values can be far off.

Legend:
Assay in all cases: reduction in cell viability relative to untreated/vehicle; higher = more growth inhibition
Conditions in all cases: 200 nM; 72 h
M229P = system: M229P (parental melanoma line)
M229R = system: M229R (matched melanoma line resistant to BRAF inhibitors)
M238P = system: M238P (parental melanoma line)
M238R = system: M238R (matched melanoma line resistant to BRAF inhibitors)
M249P = system: M249P (parental melanoma line)
M249R = system: M249R (matched melanoma line resistant to BRAF inhibitors)
UACC62P = system: UACC62P (parental melanoma line)
UACC62R = system: UACC62R (matched melanoma line resistant to BRAF inhibitors)

SMILES | reduction in cell viability (M229P) | reduction in cell viability (M229R) | reduction in cell viability (M238P) | reduction in cell viability (M238R) | reduction in cell viability (M249P) | reduction in cell viability (M249R) | reduction in cell viability (UACC62P) | reduction in cell viability (UACC62R)
N#Cc1ccc(NC(=O)Nc2ccccc2Br)c2n[nH]nc12 | < 0% | < 0% | < 0% | < 0% | < 0% | < 0% | 2.58% | < 0%
CC[C@H](C)C(=O)O[C@H]1C[C@@H](C)C=C2C=C[C@H](C)[C@H](CC[C@@H]3C[C@@H](O)CC(=O)O3)[C@H]21 [Lovastatin] | < 0% | < 0% | < 0% | < 0% | < 0% | < 0% | < 0% | < 0%
CC(C)(C)c1cc(C(=O)O)c(NC(=O)Nc2ccc3[nH]ncc3c2)s1 | < 0% | < 0% | < 0% | < 0% | < 0% | < 0% | < 0% | < 0%
CC[C@H](CC[C@@H](C)[C@H]1CC[C@H]2[C@@H]3CC=C4C[C@@H](O)CC[C@]4(C)[C@H]3CC[C@]12C)C(C)C [beta-Sitosterol] | < 0% | < 0% | < 0% | < 0% | < 0% | < 0% | < 0% | < 0%
COc1cccc(Nc2c(C(N)=O)cnc3c(C)cc(S(=O)(=O)c4cccc(C(=O)N(C)C)c4)cc23)c1 | < 0% | < 0% | < 0% | < 0% | < 0% | < 0% | < 0% | < 0%
COc1ccc(C[C@@H](C)[C@@H](C)Cc2ccc(OC)c(OC)c2)cc1OC [Terameprocol] | < 0% | < 0% | < 0% | < 0% | < 0% | 16% | 8.48% | < 0%
NC(=O)c1c(OCc2c(F)cc(Br)cc2F)nsc1NC(=O)NCCCCN1CCCC1 | < 0% | < 0% | < 0% | < 0% | < 0% | 14.3% | < 0% | < 0%
Cc1cccc(/C=N/Nc2cc(N3CCOCC3)nc(OCCc3ccccn3)n2)c1 | < 0% | 13.7% | 10.5% | < 0% | 40.4% | 47.3% | 1.74% | 2.76%
Oc1ccc(-c2nc(-c3ccc(F)cc3)c(-c3ccncc3)[nH]2)cc1 | < 0% | < 0% | < 0% | < 0% | < 0% | < 0% | < 0% | 13.4%
CCN(CCO)CCCC(C)Nc1ccnc2cc(Cl)ccc12 (configuration not stated) [Hydroxychloroquine sulfate] | < 0% | < 0% | < 0% | < 0% | < 0% | < 0% | < 0% | < 0%
CCC(=O)N1CCN(c2ccc(-n3c(=O)ccc4cnc5ccc(-c6cnc7ccccc7c6)cc5c43)cc2C(F)(F)F)CC1 [Torin-1] | 32.7% | 33.1% | 35.5% | 31.4% | 20.6% | 47.5% | 34% | 34.4%
CCC(=O)O[C@]1(C(=O)CCl)[C@@H](C)C[C@H]2[C@@H]3CCC4=CC(=O)C=C[C@]4(C)[C@@]3(F)[C@@H](O)C[C@@]21C [Clobetasol propionate] | < 0% | < 0% | < 0% | < 0% | < 0% | < 0% | < 0% | < 0%
CN1CCC[C@@H]1CCO[C@](C)(c1ccccc1)c1ccc(Cl)cc1 [Clemastine fumarate] | < 0% | < 0% | < 0% | < 0% | < 0% | < 0% | < 0% | < 0%
Nc1[nH]nc2nnc(-c3c(-c4ccccc4)nn4ccccc34)cc12 | < 0% | < 0% | 4.03% | < 0% | < 0% | < 0% | < 0% | < 0%
O=C(O)CC/C=C\CC[C@@H]1[C@@H](N2CCCCC2)[C@@H](O)C[C@@H]1OCc1ccc(-c2ccccc2)cc1 [Vapiprost hydrochloride] | < 0% | < 0% | < 0% | < 0% | < 0% | < 0% | < 0% | < 0%
CC(C)(C)C(=O)Oc1ccc(S(=O)(=O)Nc2ccccc2C(=O)NCC(=O)O)cc1 [Sivelestat] | < 0% | < 0% | < 0% | < 0% | < 0% | < 0% | 0.07% | < 0%
O=C(O)c1cc(=O)[nH]c(=O)[nH]1 [Orotic acid] | < 0% | < 0% | < 0% | < 0% | < 0% | < 0% | < 0% | < 0%

SMILES | reduction in cell viability (M229P) | reduction in cell viability (M229R) | reduction in cell viability (M238P) | reduction in cell viability (M238R) | reduction in cell viability (M249P) | reduction in cell viability (M249R) | reduction in cell viability (UACC62P) | reduction in cell viability (UACC62R)
O=C(NOCC(O)CO)c1cc(Br)c(F)c(F)c1Nc1ccc(I)cc1F (configuration not stated) | 20.3% | < 0% | 29.7% | < 0% | 52.5% | 8.73% | 46.4% | 16.3%
CO[C@H]1C[C@@H]2CC[C@@H](C)[C@@](O)(O2)C(=O)C(=O)N2CCCC[C@H]2C(=O)O[C@H]([C@H](C)C[C@@H]2CC[C@@H](OC(=O)C(C)(CO)CO)[C@H](OC)C2)CC(=O)[C@H](C)/C=C(\C)[C@@H](O)[C@@H](OC)C(=O)[C@H](C)C[C@H](C)/C=C/C=C/C=C/1C [Temsirolimus] | 10% | 4.37% | 16.6% | 6.2% | 22.1% | 35% | 35% | 8.8%
CC1(C)C(=O)N(CCN2CCC(C(=O)c3ccc(F)cc3)CC2)c2ccccc21 | < 0% | < 0% | < 0% | < 0% | < 0% | < 0% | < 0% | < 0%
COc1ccc(-c2coc3cc(O)ccc3c2=O)cc1 [Formononetin] | < 0% | < 0% | < 0% | < 0% | < 0% | < 0% | 2.82% | < 0%
COc1cc(F)c(C(C)C)cc1-c1ccc(C(F)(F)F)cc1CN1C(=O)O[C@H](c2cc(C(F)(F)F)cc(C(F)(F)F)c2)[C@@H]1C [Anacetrapib] | < 0% | < 0% | < 0% | < 0% | < 0% | < 0% | < 0% | < 0%
Cc1oncc1C(=O)Nc1ccc(C(F)(F)F)cc1 [Leflunomide] | < 0% | < 0% | < 0% | < 0% | < 0% | < 0% | 14.8% | < 0%
CN(C)CC/C=C1/c2ccccc2COc2ccc(CC(=O)O)cc21 [Olopatadine hydrochloride] | 8.25% | < 0% | < 0% | < 0% | < 0% | < 0% | < 0% | < 0%
CN1CCC(=C2c3ccccc3CCc3sccc32)CC1 [Pizotifen] | < 0% | < 0% | < 0% | < 0% | < 0% | 8.38% | < 0% | < 0%
CC[C@H]1OC(=O)[C@H](C)[C@@H](O[C@H]2C[C@@](C)(OC)[C@@H](O)[C@H](C)O2)[C@H](C)[C@@H](O[C@@H]2O[C@H](C)C[C@H](N(C)C)[C@H]2O)[C@](C)(O)C[C@@H](C)/C(=N\OCOCCOC)[C@H](C)[C@@H](O)[C@]1(C)O [Roxithromycin] | < 0% | < 0% | < 0% | < 0% | < 0% | < 0% | < 0% | < 0%
CCNC(=O)Nc1ccc(-c2nc3c(c(N4CCOC[C@@H]4C)n2)CCN(C2COC2)C3)cc1 | 7.22% | 36.6% | 21.1% | 19.4% | 11.7% | 28.2% | 21% | 22.9%
CCOc1ccc(Nc2nc(-c3c(C)nc4ccccn34)cs2)cc1 | 36.2% | 57.5% | 64.5% | 63.3% | 59.5% | 46.8% | 50.2% | 86.6%
Nc1nc(=O)[nH]cc1F [Flucytosine] | < 0% | < 0% | < 0% | < 0% | < 0% | < 0% | 2.53% | < 0%
CC(=O)O[C@@]12CO[C@@H]1C[C@H](O)[C@@]1(C)C(=O)[C@H](O)C3=C(C)[C@@H](OC(=O)[C@H](O)[C@@H](NC(=O)OC(C)(C)C)c4ccccc4)C[C@@](O)([C@@H](OC(=O)c4ccccc4)[C@H]21)C3(C)C [Docetaxel] | 18.4% | 28.7% | 55.3% | 55.9% | 35.4% | 39.5% | 21.3% | 75.7%
CC(C)CCCCC(=O)N[C@@H](CCN)C(=O)N[C@H](C(=O)N[C@@H](CCN)C(=O)N[C@H]1CCNC(=O)[C@H]([C@@H](C)O)NC(=O)[C@H](CCN)NC(=O)[C@H](CCN)NC(=O)[C@H](CC(C)C)NC(=O)[C@@H](Cc2ccccc2)NC(=O)[C@H](CCN)NC1=O)[C@@H](C)O [Polymyxin B sulphate] | < 0% | < 0% | < 0% | < 0% | < 0% | < 0% | < 0% | < 0%
Nc1cc(C(Cl)=C(Cl)Cl)c(S(N)(=O)=O)cc1S(N)(=O)=O [Clorsulon] | 4.81% | < 0% | < 0% | < 0% | < 0% | < 0% | < 0% | < 0%
Nc1ccccc1NC(=O)c1ccc(CNc2nccc(-c3cccnc3)n2)cc1 [Mocetinostat] | 4.67% | 14.7% | 36.2% | < 0% | < 0% | 7.34% | 21.7% | 35.3%
Cc1ccc(C(=O)Nc2ccc(S(=O)(=O)O)c3cc(S(=O)(=O)O)cc(S(=O)(=O)O)c23)cc1NC(=O)c1cccc(NC(=O)Nc2cccc(C(=O)Nc3cc(C(=O)Nc4ccc(S(=O)(=O)O)c5cc(S(=O)(=O)O)cc(S(=O)(=O)O)c45)ccc3C)c2)c1 [Suramin sodium] | < 0% | < 0% | < 0% | < 0% | < 0% | 10.4% | 3.15% | < 0%

One compound at a time, as listed above. Order of values: reduction in cell viability (M229P)	reduction in cell viability (M229R)	reduction in cell viability (M238P)	reduction in cell viability (M238R)	reduction in cell viability (M249P)	reduction in cell viability (M249R)	reduction in cell viability (UACC62P)	reduction in cell viability (UACC62R)
CC1(C)C(=O)N(CCN2CCC(C(=O)c3ccc(F)cc3)CC2)c2ccccc21 is entered as < 0%	< 0%	< 0%	< 0%	< 0%	< 0%	< 0%	< 0%
NC(=O)c1c(OCc2c(F)cc(Br)cc2F)nsc1NC(=O)NCCCCN1CCCC1 is entered as < 0%	< 0%	< 0%	< 0%	< 0%	14.3%	< 0%	< 0%
